Laboratory results reported in patent publication US10994016B2, “Graphene oxide mediated cellular delivery of gadolinium-labeled molecules” (Northwestern University, priority 2015, dated 2021).

How the values were obtained:
[1] = Molecular adsorption assay on GO (Gd by ICP-MS on washed GO pellet); format: physicochemical; settings: for Adsorption on GO: in cell culture media (MEM, 10% FBS), 150 nm and 1500 nm GO, in words
HeLa cells = experiment: Cell MR imaging of Magnevist-labeled cells in agarose phantoms (6-well labeling, Gd content by ICP-MS, 7 T); format: cell-based
Description: HeLa cells were labeled by Magnevist with and without 150 nm GO co-incubation in 6-well plates. 2 plates seeded at 300,000 cells per well were needed to produce a sufficient number of cells for imaging. For the condition of GO co-incubation, 4500 μL of Magnevist-GO mixture was prepared at a concentration of 93.3 mM Magnevist and 27 μg/mL GO. The mixture was allowed to adsorb for at least 15 minutes. 375 μL of the Magnevist-GO mixture was added to 625 μL of media in each well to reach a final concentration of 35 mM Magnevist and 10 μg/mL GO. The cells were incubated with the mixture for […]. To harvest, cells were rinsed in-plate three times with 3000 μL PBS and trypsinized using 400 μL 0.25% TrypLE. After 5 minutes of incubation at 37° C., 600 μL of media was added to each well and mixed by a pipette to ensure that all cells were lifted into suspension. After combining all the wells into a 12 mL cell suspension, 3 aliquots of 25 μL each were obtained for cell counting by Guava. 175 μL of Guava ViaCount reagent was used for dilution. Additionally, 200 μL of the cell suspension was transferred to a 1.5-mL microcentrifuge tube, centrifuged at 1000 RPM for 5 min (Thermo Scientific, Model Legend Micro 21R), and re-suspended in 200 μL media to wash the cells. […]

With `O=C([O-])CN1CCN(CC(=O)[O-])CCN(CC(O)Cn2cc(CCCO)nn2)CCN(CC(=O)[O-])CC1.[Gd+3]` (stereo not drawn) [Molecule 2] the “Adsorption on GO” value [1] was “far second”.
In the case of `O=C([O-])CN1CCN(CC(=O)[O-])CCN(CC(O)Cn2cc(CCCOP(=O)(O)O)nn2)CCN(CC(=O)[O-])CC1.[Gd+3]` (stereo not drawn) [Molecule 3], the “Adsorption on GO” value [1] is reported as “far second”.
For “Diethylenetriaminepentaacetic acid gadolinium(III) dihydrogen salt hydrate [Molecule 11]”, the “Molecular adsorption without adsorption time” value ([1]; 150 nm GO, mixture added directly to media) was “abolished”, the Measured adsorption ([1]; after repeated washing (FIG. 5A)) was 326 Gd/10^5 C and the “Label loss on centrifugation” value (HeLa cells; with GO) was 69%. For the same compound, the “Label loss on centrifugation” value (HeLa cells; without GO) was 57%.
